Measurements from the supplement of paper PMC10849652.
The list shows a part of the results.

Amino acid sequences for entries named in this document (tags omitted). A change or cut given only in a name is not applied to a line headed by its entry.
UniProt Q9BVJ6: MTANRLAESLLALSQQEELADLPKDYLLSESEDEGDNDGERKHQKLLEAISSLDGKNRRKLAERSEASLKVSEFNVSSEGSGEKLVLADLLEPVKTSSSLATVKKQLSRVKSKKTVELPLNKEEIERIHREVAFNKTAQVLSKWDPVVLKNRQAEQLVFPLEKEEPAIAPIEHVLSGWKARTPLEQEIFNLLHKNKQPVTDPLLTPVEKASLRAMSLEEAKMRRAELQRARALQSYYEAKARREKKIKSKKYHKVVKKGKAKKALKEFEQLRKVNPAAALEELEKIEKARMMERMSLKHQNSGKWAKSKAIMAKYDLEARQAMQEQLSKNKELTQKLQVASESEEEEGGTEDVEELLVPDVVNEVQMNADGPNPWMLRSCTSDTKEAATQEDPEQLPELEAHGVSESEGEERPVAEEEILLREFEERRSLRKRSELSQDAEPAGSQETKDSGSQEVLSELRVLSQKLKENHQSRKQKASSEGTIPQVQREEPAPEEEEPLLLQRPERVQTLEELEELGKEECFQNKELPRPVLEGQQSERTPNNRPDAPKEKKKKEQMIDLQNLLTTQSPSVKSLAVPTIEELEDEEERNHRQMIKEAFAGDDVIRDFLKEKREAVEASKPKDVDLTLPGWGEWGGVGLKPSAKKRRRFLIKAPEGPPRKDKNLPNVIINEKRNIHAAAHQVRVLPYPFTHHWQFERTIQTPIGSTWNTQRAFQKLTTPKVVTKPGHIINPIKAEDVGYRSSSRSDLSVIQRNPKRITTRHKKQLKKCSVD
UniProt Q9BTM9: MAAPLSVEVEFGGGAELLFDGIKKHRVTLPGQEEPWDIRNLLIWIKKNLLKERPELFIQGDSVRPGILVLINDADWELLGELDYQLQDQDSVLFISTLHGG
UniProt P61758, whole entry, looked up: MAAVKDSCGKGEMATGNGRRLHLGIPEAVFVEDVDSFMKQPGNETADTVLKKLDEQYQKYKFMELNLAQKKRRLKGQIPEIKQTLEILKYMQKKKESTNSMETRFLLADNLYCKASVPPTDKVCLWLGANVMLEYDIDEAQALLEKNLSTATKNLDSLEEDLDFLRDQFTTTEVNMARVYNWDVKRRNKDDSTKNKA
UniProt P26640: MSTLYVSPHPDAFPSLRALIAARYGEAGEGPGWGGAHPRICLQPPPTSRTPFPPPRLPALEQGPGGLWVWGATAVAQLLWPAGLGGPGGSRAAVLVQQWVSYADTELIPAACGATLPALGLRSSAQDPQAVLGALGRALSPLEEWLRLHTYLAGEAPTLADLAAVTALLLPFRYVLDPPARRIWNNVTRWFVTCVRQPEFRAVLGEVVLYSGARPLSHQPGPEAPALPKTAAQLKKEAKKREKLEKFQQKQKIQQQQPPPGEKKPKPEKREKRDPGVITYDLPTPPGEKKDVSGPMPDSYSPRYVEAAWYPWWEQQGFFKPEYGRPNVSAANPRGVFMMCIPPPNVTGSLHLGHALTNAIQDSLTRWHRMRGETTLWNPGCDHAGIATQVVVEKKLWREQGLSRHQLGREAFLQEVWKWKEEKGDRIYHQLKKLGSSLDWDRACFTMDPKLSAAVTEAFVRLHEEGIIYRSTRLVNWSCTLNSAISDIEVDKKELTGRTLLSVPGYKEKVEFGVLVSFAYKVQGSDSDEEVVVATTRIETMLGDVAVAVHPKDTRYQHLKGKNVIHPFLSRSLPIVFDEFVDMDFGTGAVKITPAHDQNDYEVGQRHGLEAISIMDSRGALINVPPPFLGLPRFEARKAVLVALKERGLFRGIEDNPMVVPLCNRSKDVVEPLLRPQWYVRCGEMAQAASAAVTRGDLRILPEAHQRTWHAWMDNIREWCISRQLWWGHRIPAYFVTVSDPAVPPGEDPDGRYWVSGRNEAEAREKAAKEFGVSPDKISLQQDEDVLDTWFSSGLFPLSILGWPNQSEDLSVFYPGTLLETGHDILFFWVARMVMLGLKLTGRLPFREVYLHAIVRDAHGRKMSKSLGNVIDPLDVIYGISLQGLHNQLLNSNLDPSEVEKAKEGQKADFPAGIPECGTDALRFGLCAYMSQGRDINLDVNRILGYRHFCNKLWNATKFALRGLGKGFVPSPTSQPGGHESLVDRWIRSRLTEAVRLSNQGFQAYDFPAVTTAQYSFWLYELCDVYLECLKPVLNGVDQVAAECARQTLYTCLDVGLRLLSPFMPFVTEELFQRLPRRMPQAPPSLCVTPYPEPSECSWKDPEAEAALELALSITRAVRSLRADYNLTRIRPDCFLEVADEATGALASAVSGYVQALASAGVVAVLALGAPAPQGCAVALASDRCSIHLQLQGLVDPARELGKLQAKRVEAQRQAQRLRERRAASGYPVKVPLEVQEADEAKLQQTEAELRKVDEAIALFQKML
UniProt P63027, whole entry, looked up: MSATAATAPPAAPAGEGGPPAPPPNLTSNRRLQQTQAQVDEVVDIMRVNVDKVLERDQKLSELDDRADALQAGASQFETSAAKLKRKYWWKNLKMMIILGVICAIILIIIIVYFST
UniProt Q9H3U1: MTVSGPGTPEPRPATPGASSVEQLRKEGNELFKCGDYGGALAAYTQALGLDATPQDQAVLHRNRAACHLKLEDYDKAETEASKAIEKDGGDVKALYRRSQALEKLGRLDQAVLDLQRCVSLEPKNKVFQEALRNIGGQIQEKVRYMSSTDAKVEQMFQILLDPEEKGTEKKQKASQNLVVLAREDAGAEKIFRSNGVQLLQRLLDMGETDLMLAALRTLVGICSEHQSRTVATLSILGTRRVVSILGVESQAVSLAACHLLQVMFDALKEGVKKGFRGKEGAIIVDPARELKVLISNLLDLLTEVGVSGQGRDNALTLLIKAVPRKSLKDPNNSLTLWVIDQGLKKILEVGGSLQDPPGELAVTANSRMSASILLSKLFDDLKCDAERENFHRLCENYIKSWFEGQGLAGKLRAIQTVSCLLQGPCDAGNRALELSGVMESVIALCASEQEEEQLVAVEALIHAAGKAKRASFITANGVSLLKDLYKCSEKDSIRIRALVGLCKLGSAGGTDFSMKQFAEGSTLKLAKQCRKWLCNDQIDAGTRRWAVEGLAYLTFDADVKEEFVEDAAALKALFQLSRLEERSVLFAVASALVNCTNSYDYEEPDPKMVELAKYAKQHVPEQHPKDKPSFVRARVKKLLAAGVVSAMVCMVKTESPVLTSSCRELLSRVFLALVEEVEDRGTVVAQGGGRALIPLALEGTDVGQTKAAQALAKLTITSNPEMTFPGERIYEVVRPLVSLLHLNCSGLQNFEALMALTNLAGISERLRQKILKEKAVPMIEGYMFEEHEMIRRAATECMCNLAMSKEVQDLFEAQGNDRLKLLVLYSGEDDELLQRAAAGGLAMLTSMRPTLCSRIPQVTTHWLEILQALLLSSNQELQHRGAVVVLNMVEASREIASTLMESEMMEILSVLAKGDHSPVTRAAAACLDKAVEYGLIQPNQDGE
UniProt Q9UPT9: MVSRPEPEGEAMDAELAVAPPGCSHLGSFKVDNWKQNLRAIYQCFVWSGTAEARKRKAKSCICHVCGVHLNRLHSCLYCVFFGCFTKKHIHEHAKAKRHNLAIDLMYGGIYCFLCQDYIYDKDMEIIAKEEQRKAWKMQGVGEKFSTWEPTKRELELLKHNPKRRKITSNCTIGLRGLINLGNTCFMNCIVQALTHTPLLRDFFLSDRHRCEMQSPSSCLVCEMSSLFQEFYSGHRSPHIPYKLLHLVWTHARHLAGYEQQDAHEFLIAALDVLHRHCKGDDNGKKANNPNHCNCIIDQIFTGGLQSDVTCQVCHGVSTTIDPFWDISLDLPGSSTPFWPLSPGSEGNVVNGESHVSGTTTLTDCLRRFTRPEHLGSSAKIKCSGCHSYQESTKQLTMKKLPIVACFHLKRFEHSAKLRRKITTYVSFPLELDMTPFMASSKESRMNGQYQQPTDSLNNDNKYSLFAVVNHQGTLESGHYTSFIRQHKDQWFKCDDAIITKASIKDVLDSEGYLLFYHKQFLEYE
UniProt Q92890: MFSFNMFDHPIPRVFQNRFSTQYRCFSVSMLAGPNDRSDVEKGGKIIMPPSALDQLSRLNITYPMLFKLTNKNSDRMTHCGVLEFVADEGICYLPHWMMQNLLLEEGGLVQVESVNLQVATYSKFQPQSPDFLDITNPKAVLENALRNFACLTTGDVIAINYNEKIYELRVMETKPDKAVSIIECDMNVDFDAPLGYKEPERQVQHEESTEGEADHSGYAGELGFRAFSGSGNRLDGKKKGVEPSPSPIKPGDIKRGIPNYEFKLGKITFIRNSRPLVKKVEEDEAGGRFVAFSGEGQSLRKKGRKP
UniProt P55072, whole entry, looked up: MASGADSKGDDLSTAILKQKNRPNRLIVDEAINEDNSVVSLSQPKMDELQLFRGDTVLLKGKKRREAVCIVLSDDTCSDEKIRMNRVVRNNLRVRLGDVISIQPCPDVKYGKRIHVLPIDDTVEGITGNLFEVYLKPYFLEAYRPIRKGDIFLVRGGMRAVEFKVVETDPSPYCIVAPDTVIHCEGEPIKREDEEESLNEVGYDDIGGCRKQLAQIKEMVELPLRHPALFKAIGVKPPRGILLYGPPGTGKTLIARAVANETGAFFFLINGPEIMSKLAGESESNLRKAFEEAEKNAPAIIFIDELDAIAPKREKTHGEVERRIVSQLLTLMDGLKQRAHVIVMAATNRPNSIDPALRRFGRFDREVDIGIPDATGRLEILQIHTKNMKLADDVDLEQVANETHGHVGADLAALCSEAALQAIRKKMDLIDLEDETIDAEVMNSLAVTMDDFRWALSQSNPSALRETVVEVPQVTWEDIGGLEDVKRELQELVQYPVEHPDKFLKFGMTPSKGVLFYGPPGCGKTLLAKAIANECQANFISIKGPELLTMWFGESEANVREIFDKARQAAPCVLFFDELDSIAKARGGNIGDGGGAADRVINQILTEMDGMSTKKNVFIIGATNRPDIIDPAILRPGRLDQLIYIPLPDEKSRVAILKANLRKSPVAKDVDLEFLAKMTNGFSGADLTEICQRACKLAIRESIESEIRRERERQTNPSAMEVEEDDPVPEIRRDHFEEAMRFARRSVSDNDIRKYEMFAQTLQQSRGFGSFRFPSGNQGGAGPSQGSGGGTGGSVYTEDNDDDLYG
UniProt Q9Y3C8: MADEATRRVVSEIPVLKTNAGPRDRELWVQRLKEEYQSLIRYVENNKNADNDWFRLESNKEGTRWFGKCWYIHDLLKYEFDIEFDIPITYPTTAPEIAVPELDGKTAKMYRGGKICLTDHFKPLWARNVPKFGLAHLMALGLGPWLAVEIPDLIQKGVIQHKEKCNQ
UniProt Q9BV40: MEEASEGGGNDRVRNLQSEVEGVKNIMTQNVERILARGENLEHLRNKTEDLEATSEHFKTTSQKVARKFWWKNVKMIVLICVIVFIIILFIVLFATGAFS
UniProt P22695: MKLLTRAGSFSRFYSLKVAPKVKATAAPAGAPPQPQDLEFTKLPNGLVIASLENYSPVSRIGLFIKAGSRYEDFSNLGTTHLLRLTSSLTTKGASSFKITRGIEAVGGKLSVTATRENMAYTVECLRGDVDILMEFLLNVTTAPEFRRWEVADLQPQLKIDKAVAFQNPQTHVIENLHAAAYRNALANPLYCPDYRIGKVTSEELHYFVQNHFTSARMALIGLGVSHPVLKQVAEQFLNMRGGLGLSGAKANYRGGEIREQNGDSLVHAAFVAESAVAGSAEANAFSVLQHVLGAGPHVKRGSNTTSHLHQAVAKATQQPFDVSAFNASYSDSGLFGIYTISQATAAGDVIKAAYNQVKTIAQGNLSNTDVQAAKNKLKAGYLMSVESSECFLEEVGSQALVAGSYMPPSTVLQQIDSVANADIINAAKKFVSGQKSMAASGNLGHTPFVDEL
UniProt P15498: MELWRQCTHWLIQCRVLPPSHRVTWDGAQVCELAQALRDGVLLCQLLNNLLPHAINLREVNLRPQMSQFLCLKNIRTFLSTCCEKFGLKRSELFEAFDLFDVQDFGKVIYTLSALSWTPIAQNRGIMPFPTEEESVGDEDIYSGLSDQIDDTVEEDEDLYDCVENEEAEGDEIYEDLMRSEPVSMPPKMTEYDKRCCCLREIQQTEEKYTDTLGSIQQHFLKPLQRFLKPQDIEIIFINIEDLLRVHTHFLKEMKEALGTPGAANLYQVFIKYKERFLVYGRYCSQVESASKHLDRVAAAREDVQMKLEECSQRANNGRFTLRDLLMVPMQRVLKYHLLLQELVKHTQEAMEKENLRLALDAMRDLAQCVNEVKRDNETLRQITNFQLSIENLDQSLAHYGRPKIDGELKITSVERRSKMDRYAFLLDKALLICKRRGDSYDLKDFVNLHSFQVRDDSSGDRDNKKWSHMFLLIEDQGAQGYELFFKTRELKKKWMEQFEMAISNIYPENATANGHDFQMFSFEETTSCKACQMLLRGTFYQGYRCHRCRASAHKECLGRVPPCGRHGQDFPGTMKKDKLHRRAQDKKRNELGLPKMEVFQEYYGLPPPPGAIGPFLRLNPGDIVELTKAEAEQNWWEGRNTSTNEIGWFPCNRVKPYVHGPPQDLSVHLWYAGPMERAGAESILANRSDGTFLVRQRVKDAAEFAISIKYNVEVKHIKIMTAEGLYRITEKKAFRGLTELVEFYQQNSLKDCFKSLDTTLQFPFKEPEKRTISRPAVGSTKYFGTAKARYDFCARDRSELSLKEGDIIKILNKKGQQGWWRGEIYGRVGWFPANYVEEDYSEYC

Experiments:
Test in all cases: log2 fold change, soluble protein after heating vs DMSO (PISA); higher = thermal stabilisation; K562 lysate, 10 uM; active = over 0.2 and 3.5 SD of the protein, either way, in both replicates (recomputed)
erlotinib = compound: C#Cc1cccc(Nc2ncnc3cc(OCCOC)c(OCCOC)cc23)c1 [erlotinib]
In short: (§1)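 The values are log-two fold changes in thermal stability compared with solvent controls and come from duplicates. They were obtained by TMTpro 16plex LC-MS/MS, with channel sums equalised, on the supernatant after 21,000xg for 90 min. That supernatant came from crude K562 extract at 1 mg/mL protein treated with 10 μM compound for 30 min, heated for 3 min across 48°C-58°C, pooled and brought to 0.5% NP-40 at 4°C.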

[1] = compound: C/C(=N\NC(=O)C1=CC(=CC=C1)S(=O)(=O)N2CCOCC2)/C3=C(C=CC(=C3)Cl)O
In short: as §1

[2] = compound: C1=CC(=CC=C1C2=NC3=C(N2)C=C(C=C3)C(=O)N)OC4=CC=C(C=C4)Cl
In short: as §1

[3] = compound: C1=CC2=C(C=CC(=C2)/C=C\3/C(=O)NC(=NCC4=CC=CS4)S3)N=C1
In short: as §1

[4] = compound: C1=CC2=NC=CN=C2C=C1/C=C/3\C(=O)NC(=O)S3
In short: as §1

[5] = compound: C1=CC=C(C=C1)C2=NC(=C(N2)C3=CC=NC=C3)C4=CC(=C(C=C4)Cl)O
In short: as §1

[6] = compound: C1=CC=C2C(=C1)C3=NNC4=CC=CC(=C43)C2=O
In short: as §1

[7] = compound: C1CCN(C1)C(=O)NC2=CC=CC(=C2)NC3=NC=C(C(=N3)NCCC4=CN=CN4)Br
In short: as §1

[8] = compound: C1CN(CCC1(CC2=CC=C(C=C2)Cl)N)C3=NC=NC4=C3C=CN4
In short: as §1

IRAK-1-4 Inhibitor I = compound: C1COCCN1CCN2C3=CC=CC=C3N=C2NC(=O)C4=CC(=CC=C4)[N+](=O)[O-] [IRAK-1-4 Inhibitor I]
In short: as §1

Measured: log2 fold change

USP1 (UniProt O94782)
inactive: erlotinib 0.013 | [1] 0.017 | [2] 0.027 | [3] 0.007 | [4] -0.012 | [5] -0.013 | [6] 0.018 | [7] 0.002 | [8] 0.01 | IRAK-1-4 Inhibitor I 0.013

UNK (UniProt Q9C0B0)
inactive: erlotinib -0.012 | [1] -0.053 | [2] 0.11 | [3] 0.003 | [4] 0.012 | [5] -0.007 | [6] 0.014 | [7] 0.003 | [8] 0.01 | IRAK-1-4 Inhibitor I -0.083

VIRMA (UniProt Q69YN4)
inactive: erlotinib 0 | [1] 0.043 | [2] 0.002 | [3] 0.006 | [4] -0.075 | [5] -0.029 | [6] 0.017 | [7] -0.017 | [8] 0.058 | IRAK-1-4 Inhibitor I 0.008

USP34 (UniProt Q70CQ2)
inactive: erlotinib 0.043 | [1] 0.018 | [2] -0.039 | [3] 0.029 | [4] -0.008 | [5] 0.012 | [6] -0.002 | [7] 0.003 | [8] 0.003 | IRAK-1-4 Inhibitor I -0.001

USB1 (UniProt Q9BQ65)
inactive: erlotinib 0.216 | [1] 0.015 | [2] -0.08 | [3] -0.011 | [5] 0.092 | [6] 0.106 | [7] 0.019 | [8] 0.001 | IRAK-1-4 Inhibitor I 0.024

UTP14A (UniProt Q9BVJ6)
inactive: erlotinib 0.009 | [1] -0.124 | [2] 0.091 | [3] -0.008 | [4] -0.041 | [5] 0.033 | [6] -0.043 | [7] -0.001 | [8] -0.007 | IRAK-1-4 Inhibitor I -0.014

UHRF1BP1 (UniProt Q6BDS2)
inactive: erlotinib -0.021 | [1] -0.025 | [2] 0.08 | [3] -0.019 | [4] -0.015 | [5] -0.01 | [6] 0.006 | [7] 0 | [8] -0.038 | IRAK-1-4 Inhibitor I -0.001

URM1 isoform 2 (UniProt Q9BTM9)
inactive: erlotinib 0.03 | [1] 0.008 | [2] 0.065 | [3] -0.126 | [4] -0.049 | [5] -0.014 | [6] -0.132 | [7] 0.015 | [8] 0.068 | IRAK-1-4 Inhibitor I -0.068

VBP1 (UniProt P61758)
inactive: erlotinib 0.01 | [1] 0.003 | [2] -0.009 | [3] -0.023 | [4] -0.018 | [5] 0 | [6] -0.002 | [7] 0.004 | [8] -0.011 | IRAK-1-4 Inhibitor I -0.009

VIL1 (UniProt P09327)
inactive: erlotinib -0.048 | [1] -0.017 | [2] -0.042 | [3] 0.013 | [4] 0.124 | [5] -0.026 | [6] -0.04 | [7] -0.222 | [8] 0.003 | IRAK-1-4 Inhibitor I 0.04

VARS (UniProt P26640)
inactive: erlotinib 0.031 | [1] 0.035 | [2] -0.031 | [3] 0.007 | [4] 0.03 | [5] 0.019 | [6] -0.035 | [7] 0.021 | [8] -0.002 | IRAK-1-4 Inhibitor I 0.011

USP8 (UniProt P40818)
inactive: erlotinib -0.011 | [1] -0.034 | [2] 0.026 | [3] -0.004 | [4] -0.034 | [5] 0.014 | [6] -0.028 | [7] -0.014 | [8] 0.006 | IRAK-1-4 Inhibitor I -0.019

VAMP2 (UniProt P63027)
inactive: erlotinib -0.083 | [1] 0.055 | [2] -0.024 | [3] -0.063 | [4] 0.063 | [5] -0.082 | [6] -0.037 | [7] 0.081 | [8] -0.009 | IRAK-1-4 Inhibitor I -0.033

Pulled one by one from the list above (2):
UNK (UniProt Q9C0B0)
inactive: erlotinib -0.012 | [1] -0.053 | [2] 0.11 | [3] 0.003 | [4] 0.012 | [5] -0.007 | [6] 0.014 | [7] 0.003 | [8] 0.01 | IRAK-1-4 Inhibitor I -0.083

UHRF1BP1 (UniProt Q6BDS2)
inactive: erlotinib -0.021 | [1] -0.025 | [2] 0.08 | [3] -0.019 | [4] -0.015 | [5] -0.01 | [6] 0.006 | [7] 0 | [8] -0.038 | IRAK-1-4 Inhibitor I -0.001

The results go on:

UIMC1 (UniProt Q96RL1)
inactive: erlotinib -0.013 | [1] 0 | [2] 0.024 | [3] -0.066 | [4] -0.084 | [5] 0.038 | [6] -0.053 | [7] -0.011 | [8] 0.019 | IRAK-1-4 Inhibitor I 0.046

UPF3B (UniProt Q9BZI7)
inactive: erlotinib -0.026 | [1] -0.109 | [2] 0.042 | [3] 0.02 | [4] -0.005 | [5] 0.017 | [6] -0.014 | [7] -0.018 | [8] -0.008 | IRAK-1-4 Inhibitor I 0.008

VDAC3 (UniProt Q9Y277)
inactive: erlotinib 0.015 | [1] 0.015 | [2] -0.025 | [3] -0.01 | [4] 0.003 | [5] 0.002 | [6] -0.024 | [7] -0.003 | [8] 0.017 | IRAK-1-4 Inhibitor I 0.034

UQCRC1 (UniProt P31930)
inactive: erlotinib 0.005 | [1] -0.006 | [2] -0.002 | [3] -0.008 | [4] -0.005 | [5] -0.004 | [6] -0.023 | [7] 0.004 | [8] 0.014 | IRAK-1-4 Inhibitor I -0.004

UNC45A (UniProt Q9H3U1)
inactive: erlotinib 0.016 | [1] 0.014 | [2] -0.039 | [3] -0.006 | [4] 0.001 | [5] -0.024 | [6] -0.037 | [7] -0.015 | [8] -0.002 | IRAK-1-4 Inhibitor I -0.001

VARS2, A0A0G2JL52
inactive: erlotinib 0.031 | [1] 0.069 | [2] 0.014 | [3] -0.017 | [4] -0.006 | [5] 0.06 | [6] -0.044 | [7] 0.026 | [8] 0.012 | IRAK-1-4 Inhibitor I -0.01

USP22 (UniProt Q9UPT9)
inactive: erlotinib 0.072 | [1] 0.019 | [2] -0.025 | [3] 0.048 | [4] -0.022 | [5] -0.003 | [6] -0.013 | [7] -0.021 | [8] 0.004 | IRAK-1-4 Inhibitor I -0.005

UFD1 isoform 1 (UniProt Q92890)
inactive: erlotinib -0.027 | [1] 0.052 | [2] 0.025 | [3] -0.023 | [4] 0.005 | [5] 0.018 | [6] 0.042 | [7] 0.013 | [8] 0.009 | IRAK-1-4 Inhibitor I 0.025

UHRF1 isoform 2 (UniProt Q96T88)
inactive: erlotinib 0.015 | [1] 0.089 | [2] -0.1 | [3] 0 | [4] 0.089 | [5] 0.021 | [6] -0.032 | [7] 0.026 | [8] 0.053 | IRAK-1-4 Inhibitor I -0.022

VCP (UniProt P55072)
inactive: erlotinib -0.009 | [1] -0.002 | [2] 0.027 | [3] -0.009 | [4] -0.011 | [5] -0.002 | [6] 0.012 | [7] 0.011 | [8] -0.012 | IRAK-1-4 Inhibitor I -0.008

UFC1 (UniProt Q9Y3C8)
inactive: erlotinib -0.071 | [1] 0.049 | [2] -0.003 | [3] 0.01 | [4] -0.021 | [5] -0.014 | [6] 0.008 | [7] -0.003 | [8] -0.034 | IRAK-1-4 Inhibitor I 0.001

VAMP8 (UniProt Q9BV40)
inactive: erlotinib -0.008 | [1] 0.023 | [2] 0.025 | [3] 0.02 | [4] -0.037 | [5] 0.013 | [6] -0.017 | [7] -0.02 | [8] 0.038 | IRAK-1-4 Inhibitor I -0.006

UQCRC2 (UniProt P22695)
inactive: erlotinib 0 | [1] -0.029 | [2] 0.006 | [3] -0.005 | [4] -0.019 | [5] 0.01 | [6] 0.013 | [7] -0.001 | [8] 0.019 | IRAK-1-4 Inhibitor I 0.014

UNC13B isoform 2 (UniProt O14795)
inactive: erlotinib -0.145 | [1] -0.084 | [2] -0.119 | [3] -0.081 | [5] 0.044 | [6] -0.102 | [7] -0.099 | [8] -0.028 | IRAK-1-4 Inhibitor I 0.061

UROS (UniProt P10746)
inactive: erlotinib 0.059 | [1] 0.028 | [2] 0.086 | [3] -0.033 | [4] -0.039 | [5] 0.02 | [6] -0.03 | [7] 0.004 | [8] -0.007 | IRAK-1-4 Inhibitor I 0.003

VAV1 (UniProt P15498)
inactive: erlotinib 0.02 | [1] 0.081 | [2] -0.022 | [3] 0.001 | [4] -0.043 | [5] 0.037 | [6] -0.082 | [7] -0.004 | [8] -0.002 | IRAK-1-4 Inhibitor I -0.009
